{"source": "patent US12709645B2", "about": "“Targeting gene amplification in cancer using triplex formation as a therapeutic strategy” (Yale University, priority 2018, dated 2026)", "system": "BT474 cells", "test": "Annexin-V apoptosis analysis in BT474 cells", "format": "cell-based, human", "details": "24 hours post-treatment", "note": "Some entries share one result that the patent states for a list of compounds."}
{"substance": "HER2-5922-2: TFO targeting intron 2 of the HER2 gene, 5′-GGGAAAGAGGAGGGGGTGAGAGGAGTGGGG-3′ (triplex-forming oligonucleotide, chemistry not given here, further chemistry not given here)", "values": [{"measurement": "percentage of apoptotic cells, fold", "result": "more than 2 fold"}]}
{"substance": "HER2-40118: TFO targeting intron 19 of the HER2 gene, 5′-GGGGGAAATAGGGAGGGTGGGG-3′ (triplex-forming oligonucleotide, chemistry not given here, further chemistry not given here)", "values": [{"measurement": "percentage of apoptotic cells, fold", "result": "more than 2 fold"}]}
